Measurements reported in paper PMC4117747, “The N-terminus of Mcm10 is important for interaction with the 9-1-1 clamp and in resistance to DNA damage” (Nucleic Acids Research, 2014).
Residue numbers refer to the chain shown, from its start. In names and notes the source's numbering stands. These are yes or no findings as the source states them, for the method shown. For some assays here: Binding seen in cells or lysates may run through a third protein. Some binding calls cover weakened binding; strength is not graded here. Sequences can lack the tags named with a protein. Values belong to the binder of their own block, whether it stands above or below them.

Legend:
[1] = biological target: T1, Mcm10 (LexA fusion, wild type) (S. cerevisiae) (UniProt P32354); assay: two-hybrid; yeast two-hybrid with pBTM116 (LexA) and pACT2 fusions; β-galactosidase activity in cell extracts, in triplicate from at least three clones
T1 sequence: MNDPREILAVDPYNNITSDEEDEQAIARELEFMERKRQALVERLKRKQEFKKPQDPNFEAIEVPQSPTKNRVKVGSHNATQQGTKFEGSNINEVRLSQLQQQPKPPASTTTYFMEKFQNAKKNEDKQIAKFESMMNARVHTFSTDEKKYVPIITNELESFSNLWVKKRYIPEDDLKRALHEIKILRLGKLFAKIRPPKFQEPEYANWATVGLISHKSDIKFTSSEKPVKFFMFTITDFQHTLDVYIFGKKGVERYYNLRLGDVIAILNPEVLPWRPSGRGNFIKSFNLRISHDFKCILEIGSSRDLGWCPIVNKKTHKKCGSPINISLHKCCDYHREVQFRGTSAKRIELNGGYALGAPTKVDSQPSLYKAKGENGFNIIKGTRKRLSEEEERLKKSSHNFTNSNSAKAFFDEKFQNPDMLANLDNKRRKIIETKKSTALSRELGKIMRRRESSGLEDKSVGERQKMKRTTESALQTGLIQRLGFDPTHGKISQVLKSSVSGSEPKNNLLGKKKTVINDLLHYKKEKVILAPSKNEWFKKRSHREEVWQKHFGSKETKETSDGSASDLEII

[2] = biological target: T2, Mcm10-9Myc (endogenous Mcm10 tagged at the C-terminus) (S. cerevisiae (endogenous in W303-1a derived strains)) (UniProt P32354); assay: co-IP; as a2, but cultures treated with CPT or PLE
T2 sequence: T1 sequence

[3] = biological target: T2, Mcm10-9Myc (endogenous Mcm10 tagged at the C-terminus) (S. cerevisiae (endogenous in W303-1a derived strains)); assay: co-IP; endogenously tagged proteins; DNase I-treated whole cell extracts of cultures treated with 200 mM HU or 100 J/m^2 UV; anti-c-Myc beads pull down Mcm10-9Myc, anti-HA blot
[4] = biological target: T2, Mcm10-9Myc (endogenous Mcm10 tagged at the C-terminus) (S. cerevisiae (endogenous in W303-1a derived strains)); assay: condition: only untreated, logarithmically growing cultures; co-IP; as a2, but untreated, logarithmically growing cultures

binding [1]: binds
B1: Mcm10 (LexA fusion, wild type) (natural protein, S. cerevisiae, UniProt P32354 1-571, looked up)
chain: T1 sequence
notes: Mcm10, budding yeast, called full-length in the Co-IP with LexA-tagged constructs; also called LexA-tagged Mcm10; full-length Mcm10; source: yeast two-hybrid fusion (pBTM116); also overexpressed in yeast, in whole cell extract, for Co-IP

binding [1]: binds
B2: Mec3 L211A (pACT2 fusion) (protein, UniProt Q02574 1-474)
chain: MKLKLIVNGCEAPDDYKLLRTTINTVASLRKTAILRFNSERLTIISTPKSSLNSSNNGTILRGDTGQLWCTIPHDVFRLYTVISARELNTITMECNCDSLLSVFKRYDRVMNQGSSSNMTIKLQSMPEWNTNNGTLSGGTAGGVDTTSKPNPICALGITFEEIVHTSGPNDAIVMNGGVDEHNGLPTTVGTGNLLASNKVIMHSFKVPVKALFRAQDTRIQEPMINYIQLMMYKLPPISGEFGSAFHGFIRRVERYSNVNHIHLMGVKKKEHGNEGDDVELKIIVNELDWHLEICWNGPLDSVIQRQEGLTDNPSQNQHIDTDGRQEEGSLPIIEADKPMSSLYTNTRDREMEENIRYDEDLLRIEDSSIADTRGNIYTADTSGDTEFNDISVMVEKAEQESSSTHEVIIRCKDWKVCSKLYAAFEEVVLAISHDESCVFHCSLDRGSLEDSEDVEKPRERGQIIYYIARSKGL

binding [1]: binds
B3: Mec3 I225A (pACT2 fusion) (protein, UniProt Q02574 1-474)
chain: B2 chain with A211L, I225A

binding [1]: binds
B4: Mec3 L230A (pACT2 fusion) (protein, UniProt Q02574 1-474)
chain: B2 chain with A211L, L230A

binding [1]: binds
B5: Mec3 L212A (pACT2 fusion) (protein, UniProt Q02574 1-474)
chain: B2 chain with A211L, L212A

binding [3]: binds weakly
binding [4]: no binding
B6: Mec3-3HA (endogenous Mec3 tagged at the C-terminus) (protein, UniProt Q02574 1-474)
chain: B2 chain with A211L
binding [2]: no binding (condition: cultures treated with CPT or PLE)

binding [1]: binds
B7: Mec3 I220A (pACT2 fusion) (protein, UniProt Q02574 1-474)
chain: B2 chain with A211L, I220A

binding [1]: binds
B8: Mec3 Y227A (pACT2 fusion) (protein, UniProt Q02574 1-474)
chain: B2 chain with A211L, Y227A

binding [1]: no binding
B9: Rad17 (two-hybrid fusion) (protein, UniProt P48581 1-401)
chain: MRINSELANKFSASTVHLEHITTALSCLTPFGSKDDVLIFIDADGLSFVRENNHVIKIQLLLSRELFMSYSYRNETEDHMKLCVKINHILDSVSVMNRNSDDIVECTLSYDGHGSPFVLIFEDSFISERVEYSTYLIKDFDTNGLELDRERISFEAIIKGEALHSALKDLKEIGCKECYVYAKTEANDENVFALISKSQLGFSKIKLPSNRSILEKLQVFDGDSTTVIDGFAVIGFFDFTSFDKIRKSTKIASKVLFRMDVHGVLSVNILSQTDDVIITDTTRPSNNRPGSIRQLQLPKDYPGIVIEVCMLEKESIDEAAQTEIELLMETNELGNRNSFKKSTIRKRYGTDKGNETSNDNLLQLNGKKIKLPSEEENNKNRESEDEENHCKYPTKDIPIFF
